Laboratory results reported in PubChem BioAssay AID493014 (National Center for Advancing Translational Sciences (NCATS), 2011).
Some of the results follow. These are further read-outs of the screen, such as a control signal, another cell line or another target. No call is given for them. Most of these compounds were active or inconclusive in the main read-out, so they are no random draw. Words in brackets tell the shape of the fitted curve; partial curves, single points and poor fits give uncertain potencies.

Experiment: qHTS Assay to Find Inhibitors of Chronic Active B-Cell Receptor Signaling
Settings: ABC-DLBCL IkBa-CBG/CBR reporter, luminescence ratio (green luciferase fused to IkBa over red control in TMD8 lymphoma cells), 4 h; measured here: CBR red luminescence, cell number
How it was run: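 TMD8 ABC-DLBCL cells carrying doxycycline-inducible green luciferase fused to IkappaBalpha plus unfused red luciferase were exposed to compounds (up to 46 uM) for 4 hrs at 37C. Activity came from the overlap-corrected green/red luminescence ratio.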

Structure (SMILES) | AC50
Cc1c(Br)c([N+](=O)[O-])nn1CC(=O)N1CCCc2ccccc21 | 16.4 µM [rising, partial curve, poor fit]
CCOc1cc(O)c(-c2[nH]ncc2-c2nc(C)cs2)cc1CC | 35.5 µM [falling, single point]
Cc1cccc(N/C=C/C(=O)c2ccc(Cl)cc2)c1 | 7.08 µM [falling, partial curve]
COc1cccc(-c2onc3ccc(C(C)=O)cc23)c1 | 0.631 µM [falling, full curve, poor fit]
COc1cc(CCCN2C(N)=NC[C@@H]2Cc2ccccc2)cc(OC)c1OC | 35.5 µM [rising, single point]
Cc1nn(-c2ccccc2)c(C)c1/C=N/NC(=O)c1cnccn1 | 0.562 µM [rising, full curve, poor fit]
CCOc1ccccc1C(=O)Nc1cc(Cl)ccc1O | 29.1 µM [falling, single point]
Nc1ccc(S(=O)(=O)N2CCC(Cc3ccccc3)CC2)cc1 | 0.398 µM [rising, partial curve, poor fit]
O=C(NN1CCOCC1)c1ccc(Cl)cc1 | 32.6 µM [rising, partial curve, poor fit]
COC(=O)Cc1c(C)c2ccc(OCC(=O)N3CCC(C)CC3)c(C)c2oc1=O | 20 µM [falling, single point]
CCN(CC)S(=O)(=O)c1ccc(Nc2nc3ccccc3n3nnnc23)cc1 | 0.231 µM [falling, full curve]
COCC1CCCCN1C(=O)c1ccc2nc(Cc3ccc(OC)c(OC)c3)oc2c1 (configuration not stated) | 35.5 µM [falling, single point]
COc1ccc(NC(=O)c2oc3ccccc3c2NC(=O)C(C)(C)C)cc1 | 25.9 µM [falling, partial curve]
CCOC(=O)C1=C(C)OC(N)=C(C#N)C1c1ccc(C)o1 (configuration not stated) | 0.082 µM [rising, full curve, poor fit]
CCO[C@@H]1OC(C(=O)NCc2nc3ccccc3[nH]2)=C[C@H](c2csc3ccccc23)[C@H]1CCCO | 12.6 µM [falling, single point]
CC1(C)Cc2c(C#N)c(NCC3CCCO3)nc(-c3ccco3)c2CO1 (configuration not stated) | 0.411 µM [falling, full curve]
COc1ccc(/C=C/c2cc(C(=O)O)c3ccccc3n2)cc1 | 1.41 µM [falling, full curve, poor fit]
O=C(Nc1ccc(-c2cn3c(n2)SCC3)cc1)c1ccco1 | 3.55 µM [rising, partial curve]
CCCC1C(c2ccc(OC)cc2)C(C#N)(C#N)C2(C#N)CC1(N)NC2=O (configuration not stated) | 31.6 µM [rising, partial curve, poor fit]
CCc1nnc(SCC(=O)Nc2nccs2)n1CC | 17.8 µM [falling, partial curve, poor fit]
CSc1cccc(NC(=O)C2CCN(S(C)(=O)=O)CC2)c1 | 0.731 µM [rising, full curve, poor fit]

Structure (SMILES) | AC50
Cc1ccc(C)c(S(=O)(=O)Nc2ccc(C(=O)N3CCCCC3)cc2)c1 | 35.5 µM [rising, single point]
NC(=O)C(c1ccccc1)c1ccc(C(=O)c2ccccc2)cc1 (configuration not stated) | 11.2 µM [falling, single point]
CN1C(=O)/C(=C/C=C2\SCCN2C)SC1=S | 5.8 µM [rising, full curve, poor fit]
C=CCC1(CC=C)CCCN1C(=O)C1CCC(=O)N(CCc2ccc(Cl)cc2)C1 (configuration not stated) | 17.8 µM [falling, single point]
CCOC(=O)c1c(-c2ccc(OC)cc2)csc1NC(=O)CNCc1ccco1 | 1.78 µM [falling, full curve, poor fit]
O=C(NCc1cccnc1)c1ccc(CS(=O)(=O)c2ccc(Br)cc2)o1 | 18.4 µM [rising, single point]
COc1ccccc1NS(=O)(=O)c1cc(NC(=O)CC(C)(C)C)ccc1N1CCOCC1 | 35.5 µM [rising, single point]
CCN(Cc1ccccc1)C(=O)c1cc2c(=O)oc3ccc(C)cc3c2s1 | 6.51 µM [falling, single point]
COc1cc2oc(=O)cc(-c3ccc(-c4ccc(C#N)cc4)cc3)c2c(OC)c1OC | 20.6 µM [rising, partial curve, poor fit]
CCOc1ccc(-c2cc(CCCC(=O)NCc3ccc(C)cc3)no2)cc1 | 1.3 µM [falling, full curve, poor fit]
COc1ccc(/C=C/C(=O)c2ccc(NC3=NCCCS3)cc2)cc1OC | 20 µM [falling, partial curve, poor fit]
Cn1cc(SCC(=O)NC2CCCCC2)c2ccccc21 | 17.8 µM [falling, partial curve, poor fit]
COc1ccc(-c2nnc(SCC(=O)c3cccs3)o2)c(OC)c1 | 11.2 µM [falling, single point]
N#C/C(=N\Nc1ccc(Cl)cc1)C(=O)c1ccsc1 | 31.6 µM [falling, single point]
COCCNC(=O)c1ccc(C2SCC(=O)N2CCc2ccccc2)cc1 (configuration not stated) | 25.1 µM [rising, single point]
Cc1ccc(-c2nc(CN(C)Cc3cccc4cnccc34)c(C)o2)s1 | 1.58 µM [rising, partial curve, poor fit]
COc1ccc(OC)c(C2=Nn3c(nnc3-c3cc(OC)c(OC)c(OC)c3)SC2)c1 | 15.8 µM [falling, partial curve]
COc1ccc2[nH]c(=O)c(CN(Cc3ccco3)Cc3nnnn3Cc3ccccc3)cc2c1 | 3.16 µM [falling, single point]
N#CC1=C(N)Oc2n[nH]c(-c3cccs3)c2C1c1cccs1 (configuration not stated) | 17.8 µM [falling, partial curve]
O=C(NNC(=S)NC(=O)c1cccnc1)c1ccccc1 | 35.5 µM [falling, single point]
S=C(NCc1ccco1)Nc1cc(-c2ccccc2)[nH]n1 | 8.91 µM [falling, partial curve, poor fit]

An excerpt from further up, for reference:
Structure (SMILES) | AC50
CN1C(=O)/C(=C/C=C2\SCCN2C)SC1=S | 5.8 µM [rising, full curve, poor fit]
C=CCC1(CC=C)CCCN1C(=O)C1CCC(=O)N(CCc2ccc(Cl)cc2)C1 (configuration not stated) | 17.8 µM [falling, single point]
CCOC(=O)c1c(-c2ccc(OC)cc2)csc1NC(=O)CNCc1ccco1 | 1.78 µM [falling, full curve, poor fit]
